Values quoted from earlier work as cited in US12312325B2, “Methods and compounds useful in the synthesis of an AAK1 inhibitor” (Lexicon Pharmaceuticals, Inc., priority 2022, dated 2025).
At least one compound was matched to its structure with a doubt left.

What was measured:
HCV [1] = conditions: Huh-7.5 cells; cited from earlier work
HCV [2] = conditions: Huh-7.5 cells; cited from earlier work; remark: listed apart in the source

## CCN(CC)CCNC(=O)c1c(C)[nH]c(/C=C2\C(=O)Nc3ccc(F)cc32)c1C [sunitinib]
HCV [1]
  HCV entry: inhibit HCV entry
HCV [2]
  HCV virion assembly: reduced HCV virion assembly
